Test results as given in the OPERA property sets (Mansouri et al. 2018).
Values after ≈ are worked out from the molar mass of the structure shown.

O=C(O)c1cccc2cccc([N+](=O)[O-])c12
solubility: 1780 µM (≈ 386 µg/mL)
